In publication PMC6761483 one finds binding data, which are given here for 1 molecule.

No constants are given. Whether binding was seen depends on the method and setting. Some results given as binding are weak or reduced against the parent protein; the word gives no strength.

The target in the assay is T1, KELCH-repeat region of AtFKF1 (amino acids 284 to 619) (Arabidopsis thaliana) (UniProt Q9C9W9).
T1 sequence: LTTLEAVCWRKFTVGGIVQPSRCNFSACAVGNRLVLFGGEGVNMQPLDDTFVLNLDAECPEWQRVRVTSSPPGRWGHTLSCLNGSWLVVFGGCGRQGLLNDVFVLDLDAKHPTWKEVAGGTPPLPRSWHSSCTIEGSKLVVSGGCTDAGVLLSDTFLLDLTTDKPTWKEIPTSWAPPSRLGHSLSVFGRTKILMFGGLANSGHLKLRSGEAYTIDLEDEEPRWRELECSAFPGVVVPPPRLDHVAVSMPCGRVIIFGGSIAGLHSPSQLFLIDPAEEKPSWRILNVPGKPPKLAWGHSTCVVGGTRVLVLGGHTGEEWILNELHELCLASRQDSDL
Description: two-hybrid; prey in pDEST22 (AD) in yeast PJ69-4A mated with bait in pDEST32 (BD) in PJ69-4α; diploids plated on SD -Trp -Leu -His with 0, 1, 2, 10, 25, 50 and 100 mM 3-AT; colonies over 11 days at 28°C; two independent clones.

B1: AtCDF1 (protein, UniProt Q8W1E3 1-298)
chain: MLETKDPAIKLFGMKIPFPTVLEVADEEEEKNQNKTLTDQSEKDKTLKKPTKILPCPRCNSMETKFCYYNNYNVNQPRHFCKACQRYWTSGGTMRSVPIGAGRRKNKNNSPTSHYHHVTISETNGPVLSFSLGDDQKVSSNRFGNQKLVARIENNDERSNNNTSNGLNCFPGVSWPYTWNPAFYPVYPYWSMPVLSSPVSSSPTSTLGKHSRDEDETVKQKQRNGSVLVPKTLRIDDPNEAAKSSIWTTLGIKNEVMFNGFGSKKEVKLSNKEETETSLVLCANPAALSRSINFHEQM
With B1, the binding entry is on record as “binds”.
